No constants are given. Whether binding was seen depends on the method and setting. Some results given as binding are weak or reduced against the parent protein; the word gives no strength.
Target: T1, S. pombe Pch1 (S. pombe) (UniProt O74627)
T1 sequence: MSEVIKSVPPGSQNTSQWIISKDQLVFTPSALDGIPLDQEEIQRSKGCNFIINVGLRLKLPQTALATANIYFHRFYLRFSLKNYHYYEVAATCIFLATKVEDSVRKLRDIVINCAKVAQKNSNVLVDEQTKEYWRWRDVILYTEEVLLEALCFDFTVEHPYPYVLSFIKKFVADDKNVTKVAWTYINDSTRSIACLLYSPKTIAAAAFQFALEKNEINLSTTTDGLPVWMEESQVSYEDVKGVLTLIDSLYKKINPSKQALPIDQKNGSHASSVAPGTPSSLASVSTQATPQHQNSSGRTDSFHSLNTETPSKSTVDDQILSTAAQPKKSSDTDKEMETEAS
Assay: co-purification (Ni-NTA affinity, then gel filtration); Cdk9 and His-tagged Pch1 coexpressed in Sf9 cells; lysate in 25 mM Tris-HCl pH 8.0, 500 mM NaCl, 10 mM imidazole applied to Ni-NTA resin, eluted with 250 mM imidazole; His-tag cleaved with TEV; Superdex 200 in 20 mM HEPES 7.5, 150 mM NaCl; in the cold

B1: S. pombe Cdk9 (enzyme, UniProt Q96WV9 1-591)
chain: MKRSSSVSVEDEKSARRKLDVVPKLHFVGCSHLTDYHLMEKLGEGTFGEVYKSQRRKDGKVYALKRILMHTEKEGFPITAIREIKILKSIKHENIIPLSDMTVVRADKKHRRRGSIYMVTPYMDHDLSGLLENPSVKFTEPQIKCYMKQLFAGTKYLHDQLILHRDLKAANLLIDNHGILKIADFGLARVITEESYANKNPGLPPPNRREYTGCVVTRWYRSPELLLGERRYTTAIDMWSVGCIMAEMYKGRPILQGSSDLDQLDKIFRLCGSPTQATMPNWEKLPGCEGVRSFPSHPRTLETAFFTFGKEMTSLCGAILTLNPDERLSASMALEHEYFTTPPYPANPSELQSYSASHEYDKRRKREQRDANSHAFEQTANGKRQFRFMTRGPSDPWYGIRRPNYNSQPQYQRGSYNREGGNMDRSRNVNYQPKRQQNFKPLTSDLPQKNSEFSETNAMNQTSNHSHADGQRYYRPEQDRSQRLRNPSDYGRQGRQSSQSQQPAWNVSSRYQNNSKVQTTSRASENADTNKTQHNIKYIDSYVPEYSIARQSANQKTNEQHPSSTSLHQQSTSDLKSPSFHENSNVDDTPK
  binding: binds

From PMC7397868, “System-wide analyses of the fission yeast poly(A)+ RNA interactome reveal insights into organization and function of RNA–protein complexes”
